Consider one substance from article PMC4760221, “Phosphorylation Regulates the Endocytic Function of the Yeast Dynamin-Related Protein Vps1” (Molecular and Cellular Biology, 2015).

The target in experiment [1] is T1, Gal4BD-Vps1(276-704) (S. cerevisiae) (UniProt P21576).
T1 sequence: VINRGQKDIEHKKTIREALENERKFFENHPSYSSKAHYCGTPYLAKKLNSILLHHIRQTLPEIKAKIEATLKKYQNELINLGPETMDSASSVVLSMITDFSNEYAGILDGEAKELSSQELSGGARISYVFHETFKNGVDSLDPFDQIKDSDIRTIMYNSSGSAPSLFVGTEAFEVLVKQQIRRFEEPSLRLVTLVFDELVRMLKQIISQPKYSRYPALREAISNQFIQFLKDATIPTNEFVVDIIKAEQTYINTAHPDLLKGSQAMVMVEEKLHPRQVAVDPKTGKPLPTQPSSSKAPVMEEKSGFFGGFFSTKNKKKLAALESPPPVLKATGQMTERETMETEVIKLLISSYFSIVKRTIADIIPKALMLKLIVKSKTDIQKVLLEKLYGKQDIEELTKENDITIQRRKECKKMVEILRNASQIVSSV
In words: two-hybrid; Vps1(276-704) as Gal4 binding domain fusion, Rvs167 fused to the Gal4 activation domain, strain pJ69-2A; growth on medium lacking histidine, leucine and tryptophan; controls with empty plasmids.

Experiment [2] has as its target T2, Gal4BD-Vps1(276-704) S599D (S. cerevisiae) (UniProt P21576).
T2 sequence: T1 sequence with S324D
The experiment is described as above.

Where a chain is given by its changes, count along the chain named. Results are given in words; binding and its absence hold for the method and conditions named. Some binding calls cover weakened binding; strength is not graded here.

Consider “GalAD-Rvs167 (from UniProt P39743 1-482)”, for which the binding entry in experiment [1] and in experiment [2] was “binds” in each case.
